Drawing on US20140227179A1, this text covers binding for 1 molecule.

Protein sequences, listed by entry. Tags and fused reporters are not part of them. Residues count along the entry.
UniProt P98088, residues 28-5654: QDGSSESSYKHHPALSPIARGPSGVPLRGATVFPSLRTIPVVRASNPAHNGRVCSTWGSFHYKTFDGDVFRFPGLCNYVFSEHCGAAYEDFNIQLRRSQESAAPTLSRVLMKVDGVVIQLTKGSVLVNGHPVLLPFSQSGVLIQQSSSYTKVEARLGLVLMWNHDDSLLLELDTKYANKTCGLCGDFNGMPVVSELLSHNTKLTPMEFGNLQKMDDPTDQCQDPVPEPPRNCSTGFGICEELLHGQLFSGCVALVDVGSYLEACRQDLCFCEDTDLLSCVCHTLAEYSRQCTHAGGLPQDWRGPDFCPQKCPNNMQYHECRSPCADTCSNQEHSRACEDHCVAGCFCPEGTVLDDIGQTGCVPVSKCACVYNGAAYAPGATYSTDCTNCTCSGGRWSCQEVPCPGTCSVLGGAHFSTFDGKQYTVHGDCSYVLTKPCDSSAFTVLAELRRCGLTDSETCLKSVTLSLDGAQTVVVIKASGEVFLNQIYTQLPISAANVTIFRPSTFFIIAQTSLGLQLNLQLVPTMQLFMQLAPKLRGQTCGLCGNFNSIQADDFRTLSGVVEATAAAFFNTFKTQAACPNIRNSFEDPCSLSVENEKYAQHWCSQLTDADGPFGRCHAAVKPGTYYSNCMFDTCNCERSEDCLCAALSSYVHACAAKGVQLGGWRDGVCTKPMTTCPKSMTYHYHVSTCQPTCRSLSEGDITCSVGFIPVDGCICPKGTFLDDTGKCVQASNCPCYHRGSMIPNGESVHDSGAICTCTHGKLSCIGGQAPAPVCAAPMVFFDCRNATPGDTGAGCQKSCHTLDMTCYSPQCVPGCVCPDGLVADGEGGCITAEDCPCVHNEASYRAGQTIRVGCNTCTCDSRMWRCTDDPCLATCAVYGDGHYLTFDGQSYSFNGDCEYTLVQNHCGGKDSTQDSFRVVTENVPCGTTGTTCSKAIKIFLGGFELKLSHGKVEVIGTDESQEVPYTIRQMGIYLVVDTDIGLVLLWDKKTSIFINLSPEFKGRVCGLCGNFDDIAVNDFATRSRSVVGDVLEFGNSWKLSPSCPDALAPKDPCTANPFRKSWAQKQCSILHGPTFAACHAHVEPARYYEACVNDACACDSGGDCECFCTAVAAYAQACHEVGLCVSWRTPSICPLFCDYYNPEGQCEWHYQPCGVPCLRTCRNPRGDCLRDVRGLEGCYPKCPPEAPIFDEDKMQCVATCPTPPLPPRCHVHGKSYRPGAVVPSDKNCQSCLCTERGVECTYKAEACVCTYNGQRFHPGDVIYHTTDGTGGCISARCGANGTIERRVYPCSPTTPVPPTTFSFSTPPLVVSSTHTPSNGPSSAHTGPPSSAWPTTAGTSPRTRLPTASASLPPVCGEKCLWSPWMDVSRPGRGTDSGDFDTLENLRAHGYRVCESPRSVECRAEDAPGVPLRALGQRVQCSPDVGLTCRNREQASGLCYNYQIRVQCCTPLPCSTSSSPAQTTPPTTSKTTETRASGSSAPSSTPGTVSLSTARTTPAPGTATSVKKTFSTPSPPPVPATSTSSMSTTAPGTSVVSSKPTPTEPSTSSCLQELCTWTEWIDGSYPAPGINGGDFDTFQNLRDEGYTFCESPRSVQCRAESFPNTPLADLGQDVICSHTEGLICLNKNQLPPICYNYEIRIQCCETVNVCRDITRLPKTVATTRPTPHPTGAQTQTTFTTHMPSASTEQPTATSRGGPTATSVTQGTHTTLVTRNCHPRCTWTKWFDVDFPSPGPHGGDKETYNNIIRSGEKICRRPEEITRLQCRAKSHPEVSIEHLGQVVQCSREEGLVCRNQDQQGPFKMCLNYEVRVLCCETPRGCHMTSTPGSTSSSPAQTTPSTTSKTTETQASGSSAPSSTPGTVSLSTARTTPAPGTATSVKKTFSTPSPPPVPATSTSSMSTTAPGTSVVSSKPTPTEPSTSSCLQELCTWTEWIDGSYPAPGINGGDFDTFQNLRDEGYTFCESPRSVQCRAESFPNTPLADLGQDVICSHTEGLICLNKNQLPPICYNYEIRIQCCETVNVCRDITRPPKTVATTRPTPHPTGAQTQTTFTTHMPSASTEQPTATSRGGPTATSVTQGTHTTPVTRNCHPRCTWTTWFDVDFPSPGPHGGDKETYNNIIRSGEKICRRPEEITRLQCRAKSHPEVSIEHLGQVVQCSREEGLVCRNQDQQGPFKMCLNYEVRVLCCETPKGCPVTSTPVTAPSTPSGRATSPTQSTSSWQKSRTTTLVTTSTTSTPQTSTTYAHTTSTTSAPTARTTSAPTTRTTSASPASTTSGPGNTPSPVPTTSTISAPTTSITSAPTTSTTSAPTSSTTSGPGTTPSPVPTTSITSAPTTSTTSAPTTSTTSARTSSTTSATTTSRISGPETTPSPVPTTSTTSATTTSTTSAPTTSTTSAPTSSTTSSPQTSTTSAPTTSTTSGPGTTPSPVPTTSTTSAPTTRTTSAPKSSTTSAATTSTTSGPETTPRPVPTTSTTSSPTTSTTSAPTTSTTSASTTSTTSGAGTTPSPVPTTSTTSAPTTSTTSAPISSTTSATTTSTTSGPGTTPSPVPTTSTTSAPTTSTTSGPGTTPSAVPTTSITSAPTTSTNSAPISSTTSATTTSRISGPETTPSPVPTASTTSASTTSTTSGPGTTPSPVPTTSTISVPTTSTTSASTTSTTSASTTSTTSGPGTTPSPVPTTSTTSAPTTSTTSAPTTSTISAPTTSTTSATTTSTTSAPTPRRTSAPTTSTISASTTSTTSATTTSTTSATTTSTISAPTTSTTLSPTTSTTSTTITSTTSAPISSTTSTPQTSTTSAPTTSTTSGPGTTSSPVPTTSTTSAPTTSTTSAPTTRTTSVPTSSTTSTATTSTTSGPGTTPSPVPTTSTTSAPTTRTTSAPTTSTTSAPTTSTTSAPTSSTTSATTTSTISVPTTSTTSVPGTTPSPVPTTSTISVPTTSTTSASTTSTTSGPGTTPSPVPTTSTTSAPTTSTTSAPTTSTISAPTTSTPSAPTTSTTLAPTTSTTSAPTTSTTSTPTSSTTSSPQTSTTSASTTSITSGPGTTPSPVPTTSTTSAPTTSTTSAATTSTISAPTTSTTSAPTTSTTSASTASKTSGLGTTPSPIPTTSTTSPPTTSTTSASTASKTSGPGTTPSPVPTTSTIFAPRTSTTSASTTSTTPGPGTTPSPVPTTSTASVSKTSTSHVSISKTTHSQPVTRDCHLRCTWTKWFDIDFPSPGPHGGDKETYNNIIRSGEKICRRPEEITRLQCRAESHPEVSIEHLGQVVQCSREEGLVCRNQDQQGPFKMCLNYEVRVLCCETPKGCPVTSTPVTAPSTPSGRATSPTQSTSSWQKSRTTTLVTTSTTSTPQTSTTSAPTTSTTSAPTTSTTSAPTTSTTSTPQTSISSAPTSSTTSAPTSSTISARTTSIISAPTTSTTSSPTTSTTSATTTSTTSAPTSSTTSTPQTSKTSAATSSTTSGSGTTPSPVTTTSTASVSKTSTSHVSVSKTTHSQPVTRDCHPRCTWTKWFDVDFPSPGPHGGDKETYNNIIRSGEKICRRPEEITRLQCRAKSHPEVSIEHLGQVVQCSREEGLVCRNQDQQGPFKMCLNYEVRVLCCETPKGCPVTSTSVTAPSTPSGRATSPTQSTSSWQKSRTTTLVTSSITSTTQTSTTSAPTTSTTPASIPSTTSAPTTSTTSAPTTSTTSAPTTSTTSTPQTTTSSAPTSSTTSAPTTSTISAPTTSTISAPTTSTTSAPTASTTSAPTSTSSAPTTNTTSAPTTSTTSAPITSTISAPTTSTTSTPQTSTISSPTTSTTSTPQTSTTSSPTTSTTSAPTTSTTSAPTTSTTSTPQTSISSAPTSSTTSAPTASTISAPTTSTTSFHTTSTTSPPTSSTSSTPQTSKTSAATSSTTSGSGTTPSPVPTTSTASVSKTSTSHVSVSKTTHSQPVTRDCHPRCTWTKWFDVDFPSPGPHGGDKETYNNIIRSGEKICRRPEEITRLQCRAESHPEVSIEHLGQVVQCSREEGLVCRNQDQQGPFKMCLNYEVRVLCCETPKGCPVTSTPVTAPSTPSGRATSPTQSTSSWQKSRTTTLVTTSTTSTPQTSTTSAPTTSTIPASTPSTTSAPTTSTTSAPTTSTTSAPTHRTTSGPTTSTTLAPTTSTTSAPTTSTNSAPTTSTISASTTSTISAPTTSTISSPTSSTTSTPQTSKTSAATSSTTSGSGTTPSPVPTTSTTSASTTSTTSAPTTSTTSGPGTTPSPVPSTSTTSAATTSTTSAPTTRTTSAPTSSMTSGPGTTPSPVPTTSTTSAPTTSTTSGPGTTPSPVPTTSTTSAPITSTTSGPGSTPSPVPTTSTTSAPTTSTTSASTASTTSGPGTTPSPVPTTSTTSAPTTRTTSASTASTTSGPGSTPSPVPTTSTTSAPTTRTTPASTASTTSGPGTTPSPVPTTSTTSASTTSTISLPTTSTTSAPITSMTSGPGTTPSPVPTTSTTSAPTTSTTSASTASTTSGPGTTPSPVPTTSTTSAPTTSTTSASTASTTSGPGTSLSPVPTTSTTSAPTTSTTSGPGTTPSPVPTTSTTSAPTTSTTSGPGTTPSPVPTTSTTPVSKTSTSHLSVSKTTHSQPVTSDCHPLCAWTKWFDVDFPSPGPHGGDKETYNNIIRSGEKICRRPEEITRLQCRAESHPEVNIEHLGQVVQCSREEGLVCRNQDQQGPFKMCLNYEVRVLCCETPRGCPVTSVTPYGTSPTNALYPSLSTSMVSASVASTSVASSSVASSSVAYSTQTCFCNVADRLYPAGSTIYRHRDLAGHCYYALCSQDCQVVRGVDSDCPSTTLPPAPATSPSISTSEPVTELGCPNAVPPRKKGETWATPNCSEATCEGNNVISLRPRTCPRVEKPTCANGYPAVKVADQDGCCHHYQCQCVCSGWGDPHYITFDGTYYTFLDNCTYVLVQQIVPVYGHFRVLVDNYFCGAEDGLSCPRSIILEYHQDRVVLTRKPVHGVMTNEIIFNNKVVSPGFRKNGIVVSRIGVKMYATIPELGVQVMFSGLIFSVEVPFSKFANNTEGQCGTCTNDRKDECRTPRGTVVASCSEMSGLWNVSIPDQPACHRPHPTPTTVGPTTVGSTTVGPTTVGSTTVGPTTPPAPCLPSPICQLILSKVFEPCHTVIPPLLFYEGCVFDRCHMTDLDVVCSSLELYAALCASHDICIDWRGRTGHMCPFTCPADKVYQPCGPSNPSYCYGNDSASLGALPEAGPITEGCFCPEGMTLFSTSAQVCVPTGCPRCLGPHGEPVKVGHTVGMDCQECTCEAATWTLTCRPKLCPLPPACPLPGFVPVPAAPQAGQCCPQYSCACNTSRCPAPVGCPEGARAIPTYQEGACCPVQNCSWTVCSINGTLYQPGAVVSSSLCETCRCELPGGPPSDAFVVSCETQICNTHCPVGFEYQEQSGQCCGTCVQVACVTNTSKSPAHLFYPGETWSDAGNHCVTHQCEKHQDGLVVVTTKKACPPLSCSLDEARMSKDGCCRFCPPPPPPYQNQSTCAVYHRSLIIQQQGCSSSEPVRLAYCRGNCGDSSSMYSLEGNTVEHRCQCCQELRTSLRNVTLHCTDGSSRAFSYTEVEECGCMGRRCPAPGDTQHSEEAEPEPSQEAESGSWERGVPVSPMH

This assay has as its target MUC5ac mucin (PAM4 antigen) from CaPan1 human pancreatic carcinoma (human) (UniProt P98088). The experiment in a line: immunoprecipitation from cyst fluids, PAGE and mass spectrometry.

These are yes or no findings as the source states them, for the method shown. In cells and extracts the contact can be indirect. Here binding means that the protein was enriched with, or labelled near, the bait; the list need not be complete.

B1: PAM4 antibody (version not stated where used) (antibody, V domains shown)
VH: EVQLQESGPELVKPGASVKMSCKASGYTFPSYVLHWVKQKPGQGLEWIGYINPYNDGTQYNEKFKGKATLTSDKSSSTAYMELSRLTSEDSAVYYCARGFGGSYGFAYWGQGTLITVSA
VL: DIVMTQSPAIMSASPGEKVTMTCSASSSVSSSYLYWYQQKPGSSPKLWIYSTSNLASGVPARFSGSGSGTSYSLTISSMEAEDAASYFCHQWNRYPYTFGGGTKLEIK
In the case of B1, the binding result was “binds”.
